PubChem BioAssay AID1259254, NCATS, 2017
The whole screen tested about 59,000 reagents; this is a part drawn at random. Over the whole deposit, about 1,550 (2.6%) got an active call. 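G2 share is only a proxy for re-replication; each gene was hit by three separate siRNAs, and active genes were retested.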 Entries without a mark were called inactive. The numbers tell different reagents against one gene apart. Not all columns of the deposit are shown. Not given: the amount of reagent.

Aim: 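Finding genes that stop cells copying their DNA twice in one cycle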 (primary screen)
System: human HCT116 colorectal cancer cells
Knock-down reagent: single siRNA against human genes
Time to read-out: 3 days
Measured: 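Imaged Hoechst DNA stain sorts each cell into a cycle phase by DNA amount; per plate, G2 fraction set to 0% for non-targeting and 100% for GMNN siRNA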
Direction: G2 robust z-score: higher = more G2 cells, more excess DNA replication
Rule for the call: 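An siRNA counts as active if its G2 robust z-score lies at least 5 MADs above the screen median; here such calls match roughly 38% of GMNN control or more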

{"target gene": "CREB3L2", "reagent": 1, "G2 robust z-score": 0.404}
{"target gene": "CREB3L2", "reagent": 2, "G2 robust z-score": 1.23}
{"target gene": "CREB3L2", "reagent": 3, "G2 robust z-score": 0.636}
{"target gene": "CPN2", "reagent": 1, "G2 robust z-score": 0.475}
{"target gene": "CPN2", "reagent": 2, "G2 robust z-score": 2.95}
{"target gene": "CPN2", "reagent": 3, "G2 robust z-score": -0.723}
{"target gene": "TRPM6", "reagent": 1, "G2 robust z-score": 0.673}
{"target gene": "TRPM6", "reagent": 2, "G2 robust z-score": -0.594}
{"target gene": "TRPM6", "reagent": 3, "G2 robust z-score": 1}
{"target gene": "PIEZO1", "reagent": 1, "G2 robust z-score": 2.01}
{"target gene": "PIEZO1", "reagent": 2, "G2 robust z-score": 3.33}
{"target gene": "PIEZO1", "reagent": 3, "G2 robust z-score": 0.463}
{"target gene": "HSP90AA1", "reagent": 1, "G2 robust z-score": 1.85}
{"target gene": "HSP90AA1", "reagent": 2, "G2 robust z-score": 0.429}
{"target gene": "HSP90AA1", "reagent": 3, "G2 robust z-score": -0.826}
{"target gene": "ARL9", "reagent": 1, "G2 robust z-score": -1.5}
{"target gene": "ARL9", "reagent": 2, "G2 robust z-score": -1.17}
{"target gene": "ARL9", "reagent": 3, "G2 robust z-score": 0.213}
{"target gene": "LNX1", "reagent": 1, "G2 robust z-score": 0.126}
{"target gene": "LNX1", "reagent": 2, "G2 robust z-score": 1.6}
{"target gene": "LNX1", "reagent": 3, "G2 robust z-score": -0.981}
{"target gene": "MYCBPAP", "reagent": 1, "G2 robust z-score": -1}
{"target gene": "MYCBPAP", "reagent": 2, "G2 robust z-score": 1.43}
{"target gene": "MYCBPAP", "reagent": 3, "G2 robust z-score": 0.0513}
